The structures appear in SMILES notation. The whole screen tested about 1,400 compounds, of which about 140 (10%) were called active.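 How the source made its calls: active means Half-maximal inhibitory dose from the fit at or below ten times the top valid tested dose; inconclusive means Invalid fit, or flat curve showing 30 to 70% inhibition; inactive means the rest.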 The list shows a part of the results, in another mix than the full data. Measured potencies and affinities stand elsewhere.

Chains of the proteins cited; added tags and fusions are not shown. Residues count along the entry.
UniProt Q9H3R0, 1-420 limits assumed: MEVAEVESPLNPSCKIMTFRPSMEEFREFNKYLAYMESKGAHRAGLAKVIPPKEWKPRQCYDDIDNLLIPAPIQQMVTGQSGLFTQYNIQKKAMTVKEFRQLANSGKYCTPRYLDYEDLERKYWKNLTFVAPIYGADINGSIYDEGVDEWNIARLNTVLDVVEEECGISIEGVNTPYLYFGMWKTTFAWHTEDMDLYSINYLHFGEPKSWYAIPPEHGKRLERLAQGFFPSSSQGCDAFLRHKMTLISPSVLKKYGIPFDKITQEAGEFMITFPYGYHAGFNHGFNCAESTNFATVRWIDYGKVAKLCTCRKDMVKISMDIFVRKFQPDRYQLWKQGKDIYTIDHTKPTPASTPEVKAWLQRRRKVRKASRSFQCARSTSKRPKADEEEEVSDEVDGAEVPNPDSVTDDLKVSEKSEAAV

The target of the assay is Lysine-specific demethylase 4C (Homo sapiens) (UniProt Q9H3R0). Briefly: inhibition of JMJD2C H3K9me3 demethylation – biochemical, DELFIA europium, cherry-picked samples, dose response (AID 488835).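 Further: signal is the H3K9me2 demethylation product detected by a dimethyl-specific antibody.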 As to conditions: GST-JMJD2C(1-420); at 6 µM (top of the series) unless noted.
Consider `CNC(=O)/C(C#N)=C/c1c(N(Cc2ccccc2)Cc2ccccc2)nc2ccccn2c1=O`, for which the activity change, negative = inhibition was inactive: -4.61% [at 1.6 µM].
`CCC(C)NCCCOc1ccc(C)cc1OC` (centres undefined): the activity change, negative = inhibition is inactive: -7.61%.
The result for `COC(=O)c1ccccc1NC(=O)CC(NCc1ccccc1)C(=O)O` (centres undefined) reads inactive: -0.478%; that for `CCn1nnc(NC(=O)c2cc3ccccc3o2)n1`, inactive: -8.7%; that for `CC(=O)C[C@@H](O)CC(=O)[C@@H]1OC(=O)[C@@H](C)C/C=C\Cc2ccccc21`, inactive: -0.136%.
The result for `CSCCC(NS(=O)(=O)c1ccc2ccccc2c1)C(=O)O` (centres undefined) reads inactive: 2.69%; that for `COc1ccc(N2CCN(C(=O)c3nn(C)c4c3CS(=O)(=O)c3ccccc3-4)CC2)cc1`, inactive: 3.01%.
In the case of `CC(=O)OC(C(=O)NCc1ccc2c(c1)OCO2)c1ccccc1Cl` (centres undefined) it was inactive: 2.05%.
Regarding `COc1ccccc1NC(=O)COC(=O)/C=C/c1cccs1`, the activity change, negative = inhibition was inactive: 6.16%.
For `Nc1nc2n(n1)C(c1cccs1)CC(c1ccccc1)N2` (centres undefined), the activity change, negative = inhibition is inactive: -2.08%.
With `CCCNC(=O)c1ccccc1N1CCN(CCCCN2C(=O)C3CCCCN3C2=O)CC1` (centres undefined), the activity change, negative = inhibition is inactive: -0.153%.
In the case of `O=C(COC(=O)c1ccccc1SCC(=O)N1CCCC1)NC1CCS(=O)(=O)C1` (centres undefined) it was inactive: 6.84%; in that of `CCOc1ccccc1N(CC(=O)O)S(=O)(=O)c1ccc(C)cc1`, inactive: 4.42%.
Take `CCn1c(CCn2ccnc2C)n[nH]c1=S`: the activity change, negative = inhibition is inactive: -2.6%.
Consider `N#CCCn1c(SCC(=O)N2CCN(S(=O)(=O)c3ccccc3)CC2)nc2ccccc21`, for which the activity change, negative = inhibition is inactive: -3.96%.
The result for `Oc1cc2ccccc2cc1-c1nnc2n1-c1ccccc1SC2` reads inactive: -2.47%; that for `Cc1cc(=S)c2cccc(C)c2[nH]1`, inactive: -4.31%.
As for `CCOC(=O)N1CCC(N2CCN(c3cc(C)ccc3C)CC2)CC1`, the activity change, negative = inhibition was inactive: -2.4%.
The result for `CCc1nnc(NC(=O)CCC(=O)N2CCN(Cc3ccc(Cl)cc3)CC2)s1` reads inactive: -3.01%; that for `COc1ccc(S(=O)(=O)N(C)C[C@H]2Oc3ccc(NC(=O)Cn4cnnn4)cc3C(=O)N([C@H](C)CO)C[C@@H]2C)cc1`, inactive: 5.25%; that for `COc1ccc(S(=O)(=O)C(C#N)c2nc3ccccc3nc2N2CCCCC2)cc1` (centres undefined), inactive: -2.57%.
The result for `CCOC(=O)Cc1ccc(NC(=O)c2ccc(C(C)(C)C)cc2)cc1` reads inactive: 6.61%; that for `Cc1cc(C(=O)Nc2sc3c(c2C#N)CCC(C)C3)no1` (centres undefined), inactive: 2.2%; that for `O=C(OCc1c(Cl)cccc1Cl)c1cnccn1`, inactive: 13.3%.
The result for `NC(=O)Cn1nc([N+](=O)[O-])nc1Oc1ccccc1F` reads inactive: -7.81%; that for `COc1ccc(CCNC(=O)N2c3ccccc3Sc3ccccc32)cc1`, inactive: -0.0727%.
As to `O=C(Cn1cnc2c(OCc3ccccc3)ncnc21)N1CCN(c2ccccn2)CC1`, the activity change, negative = inhibition was inactive: -2.77%.
With `COc1cc(C(C(=O)NC2CCCCC2)N(Cc2cccs2)C(=O)Cc2c[nH]c3ccccc23)cc(OC)c1OC` (centres undefined), the activity change, negative = inhibition was inactive: 6.08%.
The result for `CCOc1ccc(N=Cc2c(O)n(-c3cccc(C)n3)c(=O)c3ccccc23)cc1` reads inactive: 6.77%; that for `CCOC(=O)C1=C(C)N(C)C(C)=C(C(=O)OCC)C1c1cccnc1`, inactive: 4.58%; that for `COc1cc2c(cc1OC)C(=O)N1[C@H]3c4cc(C)ccc4OC[C@@H]3[C@H](c3ccccc3)[C@]1(C)C(=O)N2`, inactive: -0.503%.
`COc1ccc(NC(NC(=O)c2cccnc2)C(Cl)(Cl)Cl)cc1` (centres undefined): the activity change, negative = inhibition is inactive: 0.574%.
The result for `N#Cc1ccc(OCC(=O)N2CCN(S(=O)(=O)c3cccs3)CC2)cc1` reads inactive: 2.58% [at 1.6 µM]; that for `NC(=O)C1CCN(C(=O)c2ccc(Oc3cc(Cl)cc(Cl)c3)o2)CC1`, inactive: -2.91%.
Regarding `CCN(C(=O)C(C)Sc1ccc(S(=O)(=O)N2CCOCC2)cn1)c1ccccc1` (centres undefined), the activity change, negative = inhibition was inactive: -3.51%.
In the case of `Cc1ccc(N2NC3(CCN(C(N)=O)CC3)NC2=O)cc1` it was inactive: -5.57%.
As for `CN(c1ccc(C(=O)O)cc1)S(=O)(=O)c1ccccc1`, the activity change, negative = inhibition is inactive: 3.22%.
The result for `O=C(/C=C/c1cccs1)NC1CCS(=O)(=O)C1` (centres undefined) reads inactive: -6.7%; that for `COc1ccc(N2C(=O)CSC23CCCCC3)cc1`, inactive: 18.5%; that for `CC(C)(C)c1ccc(C2(C)NC(=O)N(CC(=O)Nc3ccc4c(c3)OCO4)C2=O)cc1` (centres undefined), inactive: 7.1%.
In the case of `NS(=O)(=O)c1ccc(CNC(=S)Nc2ccc(F)c(Cl)c2)cc1` it was inactive: 2.64%.
The result for `O=S1(=O)CCC(N=Nc2c(O)n(Cc3ccccc3)c3ccccc23)C1` (centres undefined) reads inactive: -0.825%; that for `Cc1cccc(NC(=O)CC2Nc3cccc4cccc(c34)NC2=O)c1` (centres undefined), inactive: -1.31%; that for `CC(C)n1cnc2c(NCc3ccccc3)nc(NCc3ccccc3)nc21`, inactive: -3.21%.
As for `C[C@]12c3[nH]c4ccccc4c3CCN1C(=O)C(CC(=O)NCc1cccc(C(F)(F)F)c1)C[C@@H]2C(=O)N1CCCCC1` (some centres undefined), the activity change, negative = inhibition was inactive: 1.34%.
For the molecule `CCc1ccc([C@@H]2CC=C(C(=O)O)[C@H](c3ccc(Br)cc3)N2S(=O)(=O)c2ccc(C)cc2)cc1`, the activity change, negative = inhibition is inactive: -7.79%.
In the case of `COc1ccc(NC(=O)N(C)C[C@H]2Oc3ccc(NC(=O)CCC(F)(F)F)cc3C(=O)N([C@H](C)CO)C[C@@H]2C)cc1`, the activity change, negative = inhibition is inactive: -2.68%.
In the case of `O=C(NCC1CCCO1)C(c1ccc(F)cc1)N(CCCN1CCOCC1)C(=O)c1ccc(-c2ccccc2)[nH]1` (centres undefined), the activity change, negative = inhibition was inactive: 10.5%.
In the case of `CCOC(=O)C1=C(N)Oc2ccc3ccccc3c2C1c1cccnc1` (centres undefined) it was inactive: 13.6%; in that of `CCCN(CC(=O)Nc1ccccc1C)C(=O)C1CCN(S(=O)(=O)c2ccccc2C(F)(F)F)CC1`, inactive: 5.43%.
In the case of `Cc1c(C(c2ccc([N+](=O)[O-])cc2)c2c(C)n(C)n(-c3ccccc3)c2=O)c(=O)n(-c2ccccc2)n1C` it was inactive: 4.33%; in that of `O=C(O)Cn1cc(/C=C2/SC(=O)N(CC(=O)N3CCCCCC3)C2=O)c2ccccc21`, inactive: 2.27%.
As to `c1csc(Cn2nnnc2CN2CCN(c3nc4ccccc4s3)CC2)c1`, the activity change, negative = inhibition was inactive: 4.59%.
In the case of `CCN(CC(=O)Nc1ccc2c(c1)OCCO2)C(=O)CC1CCCC1` it was inactive: -2.11%.
On to `COc1ccc(/C=N/n2c(=O)[nH]c3c([nH]c4ccc(Br)cc43)c2=O)cc1CN1CCOCC1`, for which the activity change, negative = inhibition is inactive: -1.91%.
Take `CNC[C@@H]1Oc2c(NC(=O)Nc3ccccc3)cccc2C(=O)N([C@@H](C)CO)C[C@H]1C`: the activity change, negative = inhibition was inactive: 0.718%.
In the case of `CCOC(=O)c1csc(N/N=C2\CCc3ccccc32)n1`, the activity change, negative = inhibition is inactive: 4.71%.
In the case of `CCCC(=O)Nc1ccc(Oc2ccc(NC(=O)CCC)cc2)cc1` it was inactive: 12.8%.
Take `NC(=O)NC(=O)CSc1nnc(-c2ccco2)n1Cc1ccccc1`: the activity change, negative = inhibition was inactive: -6.87%.
`O=C1/C(=C/c2cccs2)COc2ccccc21`: the activity change, negative = inhibition was inactive: 0.426%.
The result for `CC(=O)N1CCc2cc(S(=O)(=O)NC(CC(C)C)C(=O)Nc3cc(C(=O)O)ccc3C)ccc21` (centres undefined) reads inactive: -5.79%; that for `COc1ccc(C2CC(c3cccs3)=NN2S(=O)(=O)c2ccc(C)cc2)cc1` (centres undefined), inactive: -2.78%; that for `Cc1cccc(OCCCn2c(=O)oc3ccc(C)cc32)c1`, inactive: -1.05%.
As for `Cc1cccc(N2CCN(C(=O)c3ccc(CS(=O)(=O)c4ccccc4C)o3)CC2C)c1` (centres undefined), the activity change, negative = inhibition was inactive: -3.17%.
In the case of `c1ccc2c(c1)ccc1nnc(-c3ccc4c(c3)OCO4)n12` it was inactive: 5.7%.
The result for `Cc1noc(C)c1S(=O)(=O)N(C)C[C@H]1Oc2c(cccc2N(C)C)C(=O)N([C@H](C)CO)C[C@@H]1C` reads inactive: 0.203%; that for `O=C(Nc1ccccc1C(=O)N1CCOCC1)c1noc2c1CCCC2`, inactive: 3.29%.
`Cc1ccccc1CNc1nnnn1C`: the activity change, negative = inhibition is inactive: 5.25%.
For `Cc1cc(C)nc(NCc2ccc(Cl)cc2)n1`, the activity change, negative = inhibition is inactive: -2.03%.
Consider `Cc1nn(Cc2ccc([N+](=O)[O-])cc2)c(=O)n1-c1cccc(Cl)c1`, for which the activity change, negative = inhibition is inactive: 3.54%.
In the case of `COc1cccc(C(C[N+](=O)[O-])c2c(C)[nH]n(-c3ccccc3)c2=O)c1` (centres undefined) it was inactive: -3.47%; in that of `CC(C)(C)c1ccc(OCCC(=O)NC2=NCCS2)cc1`, inactive: 3.4%; in that of `Cc1ccc(S(=O)(=O)Nc2ccc3c(c2)C(=O)N([C@H](C)CO)C[C@@H](C)[C@@H](CN(C)C(=O)Nc2cccc4ccccc24)O3)cc1`, inactive: 2.6%.
The result for `O=C(Cn1cnc2c(OCc3ccccc3)ncnc21)NCCCc1ccccc1` reads inactive: -1.56%; that for `Cc1cccnc1Nc1nc(-c2ccc(O)cc2)cs1`, inactive: -2.68%; that for `COc1cccc(Oc2nccc(N(C)C)c2C#N)c1`, inactive: -0.396%.
For `O=C(CSc1nnc(CNC(=O)c2ccccc2F)o1)NCCc1ccccc1`, the activity change, negative = inhibition was inactive: 2.93%.
As to `CCOc1cc(/C=C\c2[nH]c(=O)[nH]c(=O)c2[N+](=O)[O-])ccc1OC(C)CC` (centres undefined), the activity change, negative = inhibition is inactive: -8.92%.
In the case of `C#CCOCCOCCOCCNc1nc(N2CCOCC2)nc(N2CCN(C(=O)[C@H](Cc3cc4ccccc4[nH]3)n3cc([C@@H](N)CC(C)C)nn3)CC2)n1` it was inactive: 2.27%; in that of `Cn1c(=O)c2[nH]c(N3CCN(c4cccc(O)c4)CC3)nc2n(C)c1=O`, inactive: 2.66%.
Regarding `C[C@H](CO)N1C[C@H](C)[C@@H](CN(C)S(C)(=O)=O)Oc2ccc(N(C)C)cc2C1=O`, the activity change, negative = inhibition is inactive: 3.79%.
Regarding `COc1ccc(-n2cc(CNCCc3cscn3)c(-c3ccccc3Cl)n2)cc1`, the activity change, negative = inhibition was inactive: 7.18%.
The result for `COC(=O)[C@]1(C)N[C@H](CN(C)C(=O)Nc2ccccc2)[C@@H]2C(=O)N(Cc3ccccc3)C(=O)[C@@H]21` reads inactive: -0.144%.
As for `CCN(C[C@H]1N[C@@](CC)(C(=O)OC)[C@H]2C(=O)N(C)C(=O)[C@@H]12)S(=O)(=O)c1ccc(C(F)(F)F)cc1`, the activity change, negative = inhibition is inactive: 5.54%.

The record behind these values is PubChem BioAssay AID488835 (Broad Institute, 2010).
